Laboratory results as given in article PMC10638239.
Results are given in words; binding and its absence hold for the method and conditions named. For some of these results: In cells and extracts the contact can be indirect. Some entries that bind do so weakly or less than the wild type. Each block holds one substance with its values, some of them ahead of it.

By UniProt entry, the sequences of proteins in these tests, tags left out. Where a name states a change or a piece, a line headed by the entry shows the natural chain unless it says otherwise. Residues count along the entry.
UniProt Q9NPG3: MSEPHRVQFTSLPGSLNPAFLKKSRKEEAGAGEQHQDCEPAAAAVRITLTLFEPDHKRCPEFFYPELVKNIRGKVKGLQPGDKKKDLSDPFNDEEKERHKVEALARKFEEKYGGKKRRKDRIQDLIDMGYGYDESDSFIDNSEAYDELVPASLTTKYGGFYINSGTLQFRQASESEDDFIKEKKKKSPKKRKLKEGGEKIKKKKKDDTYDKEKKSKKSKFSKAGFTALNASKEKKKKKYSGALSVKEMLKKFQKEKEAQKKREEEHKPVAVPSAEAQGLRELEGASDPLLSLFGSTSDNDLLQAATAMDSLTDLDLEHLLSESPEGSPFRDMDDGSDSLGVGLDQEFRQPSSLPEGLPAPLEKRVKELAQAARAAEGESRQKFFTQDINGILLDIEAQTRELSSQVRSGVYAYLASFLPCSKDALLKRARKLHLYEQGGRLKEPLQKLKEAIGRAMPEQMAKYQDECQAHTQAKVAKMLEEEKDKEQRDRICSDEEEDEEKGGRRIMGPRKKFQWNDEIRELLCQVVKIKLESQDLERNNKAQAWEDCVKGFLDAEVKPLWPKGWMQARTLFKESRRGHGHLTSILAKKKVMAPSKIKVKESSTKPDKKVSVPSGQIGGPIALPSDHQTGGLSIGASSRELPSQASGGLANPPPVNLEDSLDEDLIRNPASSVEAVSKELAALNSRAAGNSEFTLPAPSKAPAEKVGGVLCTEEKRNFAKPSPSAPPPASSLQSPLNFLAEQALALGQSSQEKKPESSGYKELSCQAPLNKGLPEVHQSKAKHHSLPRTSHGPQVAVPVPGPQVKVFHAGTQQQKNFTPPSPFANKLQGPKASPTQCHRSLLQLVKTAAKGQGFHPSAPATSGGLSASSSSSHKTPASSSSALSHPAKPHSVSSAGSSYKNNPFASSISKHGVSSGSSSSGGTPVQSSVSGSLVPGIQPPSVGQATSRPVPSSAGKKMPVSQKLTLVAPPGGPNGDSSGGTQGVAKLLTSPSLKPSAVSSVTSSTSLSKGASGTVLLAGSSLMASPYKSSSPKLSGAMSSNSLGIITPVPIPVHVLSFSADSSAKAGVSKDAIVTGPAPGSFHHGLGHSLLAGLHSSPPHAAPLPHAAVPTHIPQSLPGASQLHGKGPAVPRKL
His-MBP-Flag-UBN1^1-175: residues 1-175 of Q9NPG3
UniProt Q9GZX7: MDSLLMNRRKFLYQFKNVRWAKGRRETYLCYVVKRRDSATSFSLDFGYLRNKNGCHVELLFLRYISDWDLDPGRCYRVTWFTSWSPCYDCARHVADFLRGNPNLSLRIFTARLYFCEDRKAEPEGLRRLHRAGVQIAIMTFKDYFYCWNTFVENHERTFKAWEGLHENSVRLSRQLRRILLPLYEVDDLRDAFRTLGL

Legend:
[1] = target: Ubinuclein 1 (UBN1), endogenous in Raji cells (human (endogenous in Raji)) (UniProt Q9NPG3); assay: proximity ligation; Duolink in situ PLA on fixed, permeabilised Raji or DT40 ψV KO cells with mouse anti-AID and rabbit anti-UBN1 primary antibodies; confocal microscopy
[2] = target: Ubinuclein 1 (UBN1), endogenous in Raji cells (human (endogenous in Raji)) (UniProt Q9NPG3); assay: co-IP; whole-cell extract of Raji or DT40 ψV KO cells cross-linked with 2 mM DSP; lysis in 50 mM Tris-Cl pH 8.0, 150 mM NaCl, 1.0% NP-40 with DNaseI; anti-AID mAb or anti-UBN1 pAb, protein-A agarose; washes with 750 mM NaCl; western blot
His-MBP-UBN1^1-175 = His-MBP-UBN1^1-175 (UniProt Q9NPG3); assay: pull-down; purified His-MBP fusion incubated with 1.5 mg whole cell lysate of Raji or DT40 ψV KO in 1X PBS, 6 h at 4 °C; Ni-NTA beads; washes with 200 mM NaCl, 50 mM imidazole; western blot with anti-AID mAb or anti-UBN1 pAb; only the target purified
His-MBP-hAID (human) [3] = target: His-MBP-hAID (human) (UniProt Q9GZX7); assay: pull-down; equimolar purified proteins in 200 mM NaCl, 10 mM Tris-Cl pH 8.0, 10% glycerol, 0.1% tween 20, 1 mM βME, 20 mM imidazole, 6 h at 4 °C; His-tagged bait on Ni-NTA beads; washes with 50 mM imidazole; western blot with anti-flag or anti-AID antibody; both purified
His-MBP-Flag-UBN1^1-175 = His-MBP-Flag-UBN1^1-175 (UniProt Q9NPG3); assay: as above
[4] = target: Activation-induced cytidine deaminase (AID), endogenous in Raji cells (human (endogenous in Raji)) (UniProt Q9GZX7); assay: co-IP; whole-cell extract of Raji or DT40 ψV KO cells cross-linked with 2 mM DSP; lysis in 50 mM Tris-Cl pH 8.0, 150 mM NaCl, 1.0% NP-40 with DNaseI; anti-AID mAb or anti-UBN1 pAb, protein-A agarose; washes with 750 mM NaCl; western blot
His-MBP-hAID (human) [5] = target: His-MBP-hAID (human) (UniProt Q9GZX7); assay: pull-down; purified His-MBP fusion incubated with 1.5 mg whole cell lysate of Raji or DT40 ψV KO in 1X PBS, 6 h at 4 °C; Ni-NTA beads; washes with 200 mM NaCl, 50 mM imidazole; western blot with anti-AID mAb or anti-UBN1 pAb; only the target purified

binding [1]: binds weakly | binding [2]: binds | binding (His-MBP-UBN1^1-175): binds
Substance: Activation-induced cytidine deaminase (AID), endogenous in Raji cells (from UniProt Q9GZX7 1-198) (enzyme)

binding (His-MBP-hAID (human) [3]): binds
Substance: MBP-Flag-UBN1^1-175 (without His-tag) (from UniProt Q9NPG3 1-175) (domain or fragment)

binding (His-MBP-Flag-UBN1^1-175): binds
Substance: MBP-hAID (without His-tag) (from UniProt Q9GZX7 1-198) (enzyme)

binding [4]: binds | binding (His-MBP-hAID (human) [5]): binds
Substance: Ubinuclein 1 (UBN1), endogenous in Raji cells (from UniProt Q9NPG3 1-1134)
